Test results published in PMC11123929, “A Comparative Study and Prediction of the Ex Vivo Permeation of Six Vaginally Administered Drugs across Five Artificial Membranes and Vaginal Tissue” (Molecules, 2024).

Key:
in vitro [1] = details: pH 7.4
Description: (§1) There are many membranes available on the market that are grouped as cellulosic and polymeric. Taking into account those that are more convenient and economical, two synthetic membranes and their combinations were used. Synthetic PVDF (polyvinylidene difluoride) and cellulose acetate (Table S2) membranes were pre-treated according to the supplier’s instructions. Cellulose membranes were further treated to acquire their lipophilic properties. Thus, they were placed on a flat glass surface and completely coated with IPM (isopropyl myristate) solution. The cellulose membrane was allowed to incubate in the IPM solution for 30 min. After impregnation, the excess IPM solution was drained off, and the membrane was used for the in vitro experiments. To ensure that the procedure was carried out successfully, the cellulose membrane was weighed before and after pretreatment.
(§2) The in vitro permeability profile of each compound was evaluated using the Franz diffusion cell setup (PermeGear, Hellertown, PA, USA). Five distinct artificial membranes were placed between the donor (upper) and receiver (lower) chambers of cells, with an effective diffusion area of 4.9 cm^2 and a receptor volume of 20 mL; 1 mL of APIs solutions were placed in the donor compartment, which was sealed with Parafilm® to prevent any loss of moisture. The acceptor contained degassed PBS at pH 7.4. The procedure was performed under agitation at 90 rpm and at a temperature of 37 °C ± 0.2 °C.
(§3) At specified intervals (t = 2, 3, 4, 6, and 8 h), 0.5 mL of the samples was taken from the receptor compartment and replaced with an equal volume of freshly prewarmed receptor medium. The concentration of each API was quantified using the appropriate HPLC method (Section 4.1) without sample pretreatment. […] Each sample was analyzed in triplicate, and its cumulative release over time was plotted (Figure 2). The steady-state flux (Jss) was determined by plotting the permeation of the API per unit area (μg/cm^2) against time (h) and calculating the slope of the linear portion of the resulting line. […]

in vitro [2] = details: pH 7.4; remark: listed apart in the source
Description: as §1, §2, §3

in vitro [3] = details: pH 7.4; remark: listed apart in the source
Description: as §1, §2, §3

in vitro [4] = details: cow
Method: Ex vivo experiments were conducted on cow vaginal mucosa sourced from a local slaughterhouse. Tissues with an exposure area of 0.19 cm^2 were placed in a Franz diffusion cell with the epithelial mucosa side facing the donor compartment. In the donor compartment, 200 μL of API’s solution in VFS (pH 4.5) was added (37 °C ± 0.2 °C), while the acceptor was filled with 5 mL of PBS at pH 7.4 (constant stirring at 100 rpm).
Samples were centrifuged at 2000× g for 10 min, and supernatants were analyzed using HPLC as described in Section 4.1.
The procedure for extracting the drug from the tissue was as follows: after the experiment was completed, each tissue was carefully removed from the Franz cell and immersed in 5 mL of methanol. It was then sonicated for 30 min, followed by 10 min of vertexing, another 30 min in the sonicator, and 10 min of vertexing. Finally, the samples were centrifuged for 20 min at 5000× g, and the supernatant was collected for analysis.

[5] = Retention on reversed-phase C4 HPLC column as indication of tissue penetration; type: physicochemical; details: ACE C4 150 × 4.6 mm, MeOH-H2O 10:90, 0.5 mL/min, 40 °C
Method: Under the given conditions, it was assumed that the stationary phase simulates the tissue while the aqueous mobile phase represents the surrounding space. […] However, it should be clarified that under the present conditions, it was not possible to conduct a global assessment of the phenomenon because not all of the studied substances penetrated the tissue. However, this procedure could be used as an initial indication for the behaviors of potential drug candidates. […] The analysis was carried out under isocratic conditions with a flow rate of 0.5 mL/min and a mobile phase consisting of MeOH-H2O at 10:90 (v/v).

in vitro [6] = details: pH 7.4; remark: listed apart in the source
Description: as §1, §2, §3

in vitro [7] = details: pH 7.4; remark: listed apart in the source
Description: as §1, §2, §3

CCC[C@@H]1C[C@@H](C(=O)N[C@@H]([C@H]2O[C@H](SC)[C@H](O)[C@@H](O)[C@H]2O)[C@H](C)Cl)N(C)C1 [CLIND, clindamycin]
Cumulative Amount Permeated, Impregnated IPM (in vitro [1]): 285.0 3rd (±48) μg/cm^2
Papp (in vitro [1]): 0.0833 ×10⁻⁶ cm/s
permeation order of the substance, Impregnated IPM (in vitro [1]): 285.0 3rd (±48)
Cumulative Amount Permeated, IPM-Cellulose (in vitro [2]): 815.5 2nd (±85.2) μg/cm^2
Papp (in vitro [2]): 3.33 ×10⁻⁶ cm/s
permeation order of the substance, IPM-Cellulose (in vitro [2]): 815.5 2nd (±85.2)
Cumulative Amount Permeated, Cellulose (Hydrophilic) (in vitro [3]): 905.9 3rd (±38.8) μg/cm^2
Papp (in vitro [3]): 2.5 ×10⁻⁶ cm/s
permeation order of the substance, Cellulose (Hydrophilic) (in vitro [3]): 905.9 3rd (±38.8)
Cumulative Amount Permeated, Tissue (in vitro [4]): 1197.5 3rd (±159.5) μg/cm^2
Papp (in vitro [4]): 5.56 ×10⁻⁶ cm/s
Tissue Extraction (in vitro [4]): 0.3 (±0.01) mg
permeation order of the substance, Tissue (in vitro [4]): 1197.5 3rd (±159.5)
Retention time (tr) in column C4 [5]: 6.10 min
Cumulative Amount Permeated, PVDF (Hydrophobic) (in vitro [6]): 1510.1 4th (±188.6) μg/cm^2
Papp (in vitro [6]): 1.39 ×10⁻⁶ cm/s
permeation order of the substance, PVDF (Hydrophobic) (in vitro [6]): 1510.1 4th (±188.6)
Cumulative Amount Permeated, PVDF-Cellulose (in vitro [7]): 1047.1 1st (±22) μg/cm^2
Papp (in vitro [7]): 4.17 ×10⁻⁶ cm/s
permeation order of the substance, PVDF-Cellulose (in vitro [7]): 1047.1 1st (±22)
